# Reference: PubChem BioAssay AID602346 (Broad Institute, 2012)
# The whole screen tested about 340,000 compounds, of which about 1,200 (0.35%) were called active. Inconclusive means that the source gave no clear call. Such entries were picked first, then a sample of the others. Cut-off read from the data, not from the text of the source: active = inhibition above about 50% (passing the limit was not always enough); inconclusive = no clear call, values can overlap the other calls; inactive = below about 31%.
# Assay: blockers of Vif multimerization in cells – imaging, HEK293T, single point, primary screen (AID 602346)
# Conditions: Vif self-association by quenched fluorescence, 24 h, at 7.49 µM, hits give high values
row,SMILES,inhibition
1,COCCn1c(Cc2ccccc2)nnc1SCC(=O)NC1CC1,inconclusive: 33.1%
2,Oc1oc(-c2ccccc2)nc1C=NCc1ccccc1,inconclusive: 34.1%
3,CC1(C)CNC(=O)c2sc(N3CCCCC3)nc2C1,inconclusive: 22.8%
4,CCCCNc1nc(NC)nc(Cl)c1SC,inconclusive: 23.4%
5,COc1cccc(C(=O)c2cc3cc(Cl)ccc3[nH]2)c1,inactive: -0.705%
6,CC(=O)Nc1c(I)c(NC(C)=O)c(I)c(C(=O)O)c1I,inconclusive: 23.1%
7,COc1ccc(CCNC(=O)C2CCCN(S(=O)(=O)c3ccc(F)cc3)C2)cc1OC (configuration not stated),inactive: -6.94%
8,Cc1ccc(/C=N\NC(=O)c2cc(OCC(F)(F)F)ccc2OCC(F)(F)F)cc1,inconclusive: 17.9%
9,Cc1ccc(N(C(=O)CNC(=O)c2ccco2)C(C(=O)NC2CCCCC2)c2cccnc2)cc1F (configuration not stated),inconclusive: 32.8%
10,CC(C)c1nc(SCC(=O)N2CCN(c3ccccc3)CC2)c2c(=O)n(C)c(=O)n(C)c2n1,inactive: -2.56%
11,O=C(CCNC(=O)c1ccco1)Nc1ccc(OC(F)(F)F)cc1,active: 111%
12,CN1CCN(C(c2ccccc2)c2ccc(Cl)cc2)CC1 (configuration not stated),inconclusive: 38.5%
13,O=C(COC(=O)C(Cc1ccccc1)NC(=O)c1cccs1)NCc1ccccc1 (configuration not stated),active: 59.2%
14,O=C(Cn1ccc([N+](=O)[O-])n1)NCc1ccco1,inconclusive: 33.7%
15,Cc1oc2c(O)c(O)ccc2c(=O)c1-c1ccc(Cl)cc1,inconclusive: 40.2%
16,CCN(Cc1ccccc1)S(=O)(=O)c1csc(C(N)=O)c1,inconclusive: 25.2%
17,CCOc1ccc(NC(=O)C2C3C=CC4(O3)C2C(=O)N(Cc2cccnc2)C4C(=O)NC2CCCCC2)cc1 (configuration not stated),inconclusive: 47.3%
18,Cn1nnnc1Sc1ncnc2scc(-c3ccc(Cl)cc3)c12,active: 149%
19,CCN(CC(=O)NC1CCS(=O)(=O)C1)C(=O)c1ccc(S(=O)(=O)N(CC)CC)cc1 (configuration not stated),inconclusive: 23.2%

row,SMILES,inhibition
1,COc1ccc(C2CC3(O)NC(=O)C(C#N)(C3C)C2(C#N)C#N)cc1 (configuration not stated),active: 65.8%
2,CCCCCc1ccc(-c2cn(CCCOCc3ccccc3)nn2)cc1,inconclusive: 45.1%
3,CCC(CC)C(=O)NCCc1ccc(S(N)(=O)=O)cc1,active: 68%
4,O=C(c1ccco1)N1CCN(c2ncnc3c2nnn3Cc2ccccc2Cl)CC1,active: 60.3%
5,CCc1cccc(OCCCCN(CC)CC)c1,inconclusive: 35.4%
6,Nc1ncc(Br)cc1S(=O)(=O)NCCC(=O)NC1CCCCC1,inconclusive: 31.6%
7,CCOc1ccc(N(CC(=O)NCCc2ccccc2)C(=O)CCC(=O)Nc2cc(C)ccn2)cc1,inactive: -7.83%
8,Cc1ccc(NC(=O)c2cc(C)n(-c3cccc(C)c3)c2C)cc1,inactive: -5.17%
9,COc1ccc(Oc2ccc(/C=C/C(=O)c3cccc(OC)c3)cc2[N+](=O)[O-])cc1,inactive: 7.02%
10,CC[C@]1(O)CC2CN(CCc3c([nH]c4ccccc34)[C@@](C(=O)OC)(c3cc4c(cc3OC)N(C=O)[C@H]3[C@@](O)(C(=O)OC)[C@H](OC(C)=O)[C@]5(CC)C=CCN6CC[C@]43[C@@H]65)C2)C1 (some centres not stated),inconclusive: 41.9%
11,CC(C(=O)N1CCOCC1)c1ccccc1 (configuration not stated),inconclusive: 49.6%
12,Cn1cccc1C(=O)NC(=O)COC(=O)CNS(=O)(=O)c1ccc(Br)cc1,inconclusive: 7.57%
13,Oc1ccccc1C=NNc1nc2ccccc2s1,inactive: -21.3%
14,COCCNC(=O)/C(C#N)=C\c1ccc(CNS(=O)(=O)c2ccc(C)cc2)o1,inactive: 10.2%
15,CC(C)=CCCC(C)NC(=O)NC1CCCCC1 (configuration not stated),inconclusive: 29.3%
16,Cc1ccc(/C=C2/C(=O)N=C(N)N2C)s1,inactive: 12%
17,COn1c(=O)c(-c2ccccc2)[n+]([O-])c2ccccc21,active: 50.7%
18,CC(=O)NC(C)(c1ccccc1)c1nc(-c2csc3ccccc23)cs1 (configuration not stated),inconclusive: 29.4%
19,O=C(CCCOc1ccc(Cl)cc1Cl)N1CCN(c2ccccn2)CC1,inconclusive: 27.5%

# Shown tab-delimited: part of the list above
row	SMILES	inhibition
16	Cc1ccc(/C=C2/C(=O)N=C(N)N2C)s1	inactive: 12%
17	COn1c(=O)c(-c2ccccc2)[n+]([O-])c2ccccc21	active: 50.7%
18	CC(=O)NC(C)(c1ccccc1)c1nc(-c2csc3ccccc23)cs1 (configuration not stated)	inconclusive: 29.4%

# Further entries follow.

row,SMILES,inhibition
1,COC(=O)c1ccc(NC(=O)Cc2ccc(F)cc2)cc1,inactive: -2.09%
2,O=C(NNC1=NS(=O)(=O)c2ccccc21)c1ccc([N+](=O)[O-])cc1,inconclusive: 37.5%
3,Cc1onc(C(=O)N2C(C)CCCC2C)c1[N+](=O)[O-] (configuration not stated),inactive: -4.3%
4,COc1ccc(OC)c(NC(=O)c2nc(-c3ccccc3)oc2C)c1,active: 114%
5,Cc1c(NC(=O)CSc2nncc3ccccc23)c(=O)n(-c2ccccc2)n1C,inconclusive: 35.2%
6,CC(Sc1ccccc1)C(=O)NN=C1CCCCCC1 (configuration not stated),inconclusive: 20.4%
7,Fc1ccccc1CN1CCCCCCC1,inconclusive: 37.1%
8,Nc1c(C(=O)Nc2nc3ccccc3s2)sc2nc(-c3cccs3)ccc12,active: 154%
9,CC(C)Cn1c(N)c(S(=O)(=O)c2cccs2)c2nc3ccccc3nc21,inconclusive: 42.7%
10,COc1ccc2c(c1)N(C)/C(=C1/SC(=NCc3ccccc3)N(c3ccccc3)C1=O)S2,active: 170%
11,COc1cc(NC(=O)CSc2nncn2C)cc(OC)c1OC,inconclusive: 12.1%
12,Cc1ccnc(NC(=O)Nc2cccc(F)c2)n1,inactive: -6.99%
13,C=CC1=C(C(=O)O)N2C(=O)[C@@H](NC(=O)/C(=N/OCC(=O)O)c3csc(N)n3)[C@H]2SC1,inconclusive: 48.9%
14,Cc1cccn2c(=O)c3cc(C(=O)NCc4ccc(F)cc4)c(=N)n(CCCN4CCOCC4)c3nc12,inactive: -3.81%
15,O=C(OCC(=O)c1cccs1)c1cccc(C(=O)OCC(=O)c2cccs2)n1,inconclusive: 33.6%
16,CC(C)Oc1ccc(CN2CCC2(C)C(=O)Nc2ccc(Cl)c(Cl)c2)cc1 (configuration not stated),active: 58%
17,CCOC(=O)NC1(C(F)(F)F)N=C(c2ccccc2)NC1=O (configuration not stated),inactive: 3.03%
18,Cc1ccc(NC(=O)CSc2nnnn2-c2cccnc2)c(C)c1,inconclusive: 29.9%
19,CCCCN1C(=O)C(CC(=O)NC2CCCCC2)CC(C(=O)N2CCOCC2)=C1C (configuration not stated),inconclusive: 37.7%
